# Results as given in the supplement of paper PMC4604168 (melanoma cell lines).
# The other results are listed elsewhere or left out. Repeats are few or missing, and single values can be far off.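 The apoptosis fraction was the count of cleaved-PARP antibody-stained nuclei relative to all DNA-stained nuclei, imaged in 1,536-well plates. Screening doses were set so most cells survived, and baseline and induced cleaved-PARP levels vary greatly across cell lines.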
# Experiments:
# Test in all cases: cleaved PARP positive nuclei fraction relative to DMSO control; melanoma cells; higher = more apoptosis
# Details in all cases: library dose: low library concentration; 72 h
# 501Mel = system: 501Mel
# A101D = system: A101D
# A2058 = system: A2058
# A375 = system: A375
# C32 = system: C32
# CBRC013 = system: CBRC013 (line from a melanoma biopsy)
# CBRC014 = system: CBRC014 (line from a melanoma biopsy)
# CBRC016 = system: CBRC016 (line from a melanoma biopsy)
# CBRC017 = system: CBRC017 (line from a melanoma biopsy)
# CBRC034 = system: CBRC034 (line from a melanoma biopsy)
# COLO792 = system: COLO792
# COLO800 = system: COLO800
# COLO829 = system: COLO829
# G361 = system: G361
# IPC-298 = system: IPC-298
# IST-MEL1 = system: IST-MEL1
# LB2518-MEL = system: LB2518-MEL
# LOXIMVI = system: LOXIMVI
Structure (SMILES),cleaved PARP positive nuclei fraction (501Mel) [%],cleaved PARP positive nuclei fraction (A101D) [%],cleaved PARP positive nuclei fraction (A2058) [%],cleaved PARP positive nuclei fraction (A375) [%],cleaved PARP positive nuclei fraction (C32) [%],cleaved PARP positive nuclei fraction (CBRC013) [%],cleaved PARP positive nuclei fraction (CBRC014) [%],cleaved PARP positive nuclei fraction (CBRC016) [%],cleaved PARP positive nuclei fraction (CBRC017) [%],cleaved PARP positive nuclei fraction (CBRC034) [%],cleaved PARP positive nuclei fraction (COLO792) [%],cleaved PARP positive nuclei fraction (COLO800) [%],cleaved PARP positive nuclei fraction (COLO829) [%],cleaved PARP positive nuclei fraction (G361) [%],cleaved PARP positive nuclei fraction (IPC-298) [%],cleaved PARP positive nuclei fraction (IST-MEL1) [%],cleaved PARP positive nuclei fraction (LB2518-MEL) [%],cleaved PARP positive nuclei fraction (LOXIMVI) [%]
"C[C@@H]1CCN(C(=O)CC#N)C[C@@H]1N(C)c1ncnc2[nH]ccc12 + COc1cc(N2CCC(N3CCN(C)CC3)CC2)ccc1Nc1ncc(Cl)c(Nc2ccccc2S(=O)(=O)C(C)C)n1 [NVP-TAE684] (first compound 1 µM, partner dose 0.08 µM)",89.4,150,263,228,118,193,95.3,69.2,78.3,89.2,112,84.8,117,143,26.8,27.9,71.3,40.7
"Cc1cc(N2CCOCC2)cc2[nH]c(-c3c(NC[C@@H](O)c4cccc(Cl)c4)cc[nH]c3=O)nc12 + N#Cc1c(O)c2c(-c3ccc(-c4ccccc4O)cc3)csc2[nH]c1=O [A769662] (first compound 0.2 µM, partner dose 2 µM)",84.9,37.6,90.1,163,249,190,115,44.5,68.5,130,78.6,167,44.6,95.3,43.8,90.2,85.5,150
"O=C(Nc1cccc(Cl)c1)Nc1ncc(CCNc2ncnc3ccsc23)s1 + CC(C)CCN1c2nc(Nc3cc(F)c(O)c(F)c3)ncc2N(C)C(=O)C1C [BID1870] (first compound 0.0008 µM, partner dose 0.2 µM)",71.9,141,86.1,144,156,52.7,125,134,92.3,103,63,35.4,99,141,41.5,52,76.8,29.7
"CO[C@@H]1[C@H](N(C)C(=O)c2ccccc2)C[C@H]2O[C@]1(C)n1c3ccccc3c3c4c(c5c6ccccc6n2c5c31)C(=O)NC4 [Midostaurin] + COc1ccc(COc2ccc(Cc3cnc(N)nc3N)cc2OC)cc1 [GW2580] (first compound 0.08 µM, partner dose 1 µM)",177,334,65.6,107,35.5,61.1,105,185,60,91.9,144,134,88.4,92.5,178,184,197,190
"C=CCn1c(=O)c2cnc(Nc3ccc(N4CCN(C)CC4)cc3)nc2n1-c1cccc(C(C)(C)O)n1 + Oc1nc(-c2ccc(C(F)(F)F)cc2)nc2c1CSCC2 [XAV939] (first compound 0.02 µM, partner dose 2 µM)",210,158,33.7,244,209,60.7,118,61.6,76.7,43.7,215,110,184,54.1,170,41.3,80.9,305
"C#Cc1cccc(Nc2ncnc3cc(OCCOC)c(OCCOC)cc23)c1 [erlotinib] + Cn1cc(/C=C2\C(=O)Nc3cccnc32)c2ccccc21 [GW441756] (first compound 0.8 µM, partner dose 0.4 µM)",98.5,181,135,136,41.7,145,95.4,49.6,94.6,71.8,169,130,81.1,110,40.3,45.5,80.9,37.7
"Cc1nc(Nc2ncc(C(=O)Nc3c(C)cccc3Cl)s2)cc(N2CCN(CCO)CC2)n1 [dasatanib] + COc1ccc(COc2ccc(Cc3cnc(N)nc3N)cc2OC)cc1 [GW2580] (first compound 0.004 µM, partner dose 1 µM)",83.2,66.6,200,246,62.1,105,116,34.6,78.7,136,310,209,115,22.9,160,64,96.2,49.2
"OCCn1cc(-c2cnc3nnn(Cc4ccc5ncccc5c4)c3n2)cn1 + CCCCCCCCCCCC1=C(O)C(=O)C=C(O)C1=O [Embelin] (first compound 1 µM, partner dose 1.2 µM)",36.3,152,71,62.8,96.2,116,82.1,55,232,39.6,65.4,108,77.8,97.2,76.7,36.9,152,1330
